Patent US20200009134A1, “Method and Compound for Modifying Circadian Clock” (Gritscience Biopharmaceuticals Co., Ltd., priority 2017, published 2020)
At least one compound was matched to its structure with a doubt left.

Tested on: SCN explants
Assay: Circadian rhythm of SCN explants from Per2::Luciferase mice
Assay type: cell-based, mouse
From the text: U2OS cells are just cultured cells, while the SCN is the master clock in mammals. We dissected the SCN from mice expressing the Per2::Luciferase gene which faithfully reported the circadian rhythm (Yoo et al., 2004).

## CCc1cnn2c(NCc3ccc[n+]([O-])c3)cc(N3CCCC[C@H]3CCO)nc12 [Dinaciclib]
Applied at CT18
  Phase of SCN explants: delayed the phase
Applied at CTO
  Phase of SCN explants: delayed the phase
